Measured values published in article PMC11792374.
No constants are given. Whether binding was seen depends on the method and setting. Binding seen in cells or lysates may run through a third protein. Some binding calls cover weakened binding; strength is not graded here.

By UniProt entry, the sequences of proteins in these tests, tags left out.
UniProt O95477: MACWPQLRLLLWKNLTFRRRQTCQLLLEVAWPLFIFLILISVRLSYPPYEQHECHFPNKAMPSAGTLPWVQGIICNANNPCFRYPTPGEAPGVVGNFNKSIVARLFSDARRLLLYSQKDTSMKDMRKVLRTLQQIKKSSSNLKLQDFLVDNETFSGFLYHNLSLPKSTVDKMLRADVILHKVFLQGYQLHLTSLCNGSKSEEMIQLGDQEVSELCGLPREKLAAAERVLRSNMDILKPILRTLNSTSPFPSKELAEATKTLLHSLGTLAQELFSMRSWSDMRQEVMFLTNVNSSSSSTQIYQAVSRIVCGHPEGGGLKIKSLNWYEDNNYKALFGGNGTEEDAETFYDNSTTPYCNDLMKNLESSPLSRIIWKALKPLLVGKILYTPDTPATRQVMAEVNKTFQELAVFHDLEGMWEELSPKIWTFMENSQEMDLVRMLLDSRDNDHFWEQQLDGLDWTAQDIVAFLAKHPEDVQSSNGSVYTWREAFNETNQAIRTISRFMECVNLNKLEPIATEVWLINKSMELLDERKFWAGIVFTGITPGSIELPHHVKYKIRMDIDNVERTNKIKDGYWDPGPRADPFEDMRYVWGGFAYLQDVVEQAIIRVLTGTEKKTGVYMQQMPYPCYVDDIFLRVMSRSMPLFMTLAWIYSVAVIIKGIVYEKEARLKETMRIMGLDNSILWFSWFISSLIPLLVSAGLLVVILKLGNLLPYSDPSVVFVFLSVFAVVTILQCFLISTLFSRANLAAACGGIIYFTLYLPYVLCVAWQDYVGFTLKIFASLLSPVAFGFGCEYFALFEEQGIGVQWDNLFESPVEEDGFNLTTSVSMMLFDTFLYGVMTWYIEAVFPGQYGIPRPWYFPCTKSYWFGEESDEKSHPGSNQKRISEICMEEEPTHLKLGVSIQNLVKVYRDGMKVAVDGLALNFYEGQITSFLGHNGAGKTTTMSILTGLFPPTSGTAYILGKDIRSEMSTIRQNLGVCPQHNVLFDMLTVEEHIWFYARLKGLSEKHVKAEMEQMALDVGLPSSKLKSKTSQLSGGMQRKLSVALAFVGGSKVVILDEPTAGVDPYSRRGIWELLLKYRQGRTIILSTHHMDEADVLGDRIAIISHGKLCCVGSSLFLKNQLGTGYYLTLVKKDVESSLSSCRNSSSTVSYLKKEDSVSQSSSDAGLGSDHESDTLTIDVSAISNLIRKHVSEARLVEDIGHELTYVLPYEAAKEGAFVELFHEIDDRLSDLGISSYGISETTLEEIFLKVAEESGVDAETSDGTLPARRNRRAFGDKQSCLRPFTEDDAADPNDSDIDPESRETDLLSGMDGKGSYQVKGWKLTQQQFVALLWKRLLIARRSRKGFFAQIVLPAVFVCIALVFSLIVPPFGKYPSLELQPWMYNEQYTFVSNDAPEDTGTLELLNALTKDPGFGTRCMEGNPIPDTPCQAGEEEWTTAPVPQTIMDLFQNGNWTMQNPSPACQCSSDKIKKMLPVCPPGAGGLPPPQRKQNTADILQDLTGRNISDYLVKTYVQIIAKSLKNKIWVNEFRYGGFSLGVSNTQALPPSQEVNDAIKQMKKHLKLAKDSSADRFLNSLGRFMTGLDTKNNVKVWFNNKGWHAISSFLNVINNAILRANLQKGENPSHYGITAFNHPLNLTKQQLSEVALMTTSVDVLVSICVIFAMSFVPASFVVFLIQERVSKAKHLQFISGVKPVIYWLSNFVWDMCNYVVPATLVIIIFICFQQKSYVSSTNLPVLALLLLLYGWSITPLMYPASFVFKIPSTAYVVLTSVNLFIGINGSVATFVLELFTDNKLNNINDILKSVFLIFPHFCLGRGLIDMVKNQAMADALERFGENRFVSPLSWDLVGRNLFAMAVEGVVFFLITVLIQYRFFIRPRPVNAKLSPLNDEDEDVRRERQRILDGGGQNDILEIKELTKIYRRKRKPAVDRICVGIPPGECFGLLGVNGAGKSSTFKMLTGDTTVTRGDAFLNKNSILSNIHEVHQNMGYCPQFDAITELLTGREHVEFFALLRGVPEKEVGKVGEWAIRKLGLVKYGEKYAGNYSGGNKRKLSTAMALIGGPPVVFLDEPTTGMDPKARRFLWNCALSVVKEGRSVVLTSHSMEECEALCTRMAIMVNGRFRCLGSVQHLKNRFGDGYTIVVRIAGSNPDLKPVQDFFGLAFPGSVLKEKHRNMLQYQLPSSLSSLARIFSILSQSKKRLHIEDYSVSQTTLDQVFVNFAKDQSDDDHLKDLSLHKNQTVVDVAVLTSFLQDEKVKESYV
UniProt P41233: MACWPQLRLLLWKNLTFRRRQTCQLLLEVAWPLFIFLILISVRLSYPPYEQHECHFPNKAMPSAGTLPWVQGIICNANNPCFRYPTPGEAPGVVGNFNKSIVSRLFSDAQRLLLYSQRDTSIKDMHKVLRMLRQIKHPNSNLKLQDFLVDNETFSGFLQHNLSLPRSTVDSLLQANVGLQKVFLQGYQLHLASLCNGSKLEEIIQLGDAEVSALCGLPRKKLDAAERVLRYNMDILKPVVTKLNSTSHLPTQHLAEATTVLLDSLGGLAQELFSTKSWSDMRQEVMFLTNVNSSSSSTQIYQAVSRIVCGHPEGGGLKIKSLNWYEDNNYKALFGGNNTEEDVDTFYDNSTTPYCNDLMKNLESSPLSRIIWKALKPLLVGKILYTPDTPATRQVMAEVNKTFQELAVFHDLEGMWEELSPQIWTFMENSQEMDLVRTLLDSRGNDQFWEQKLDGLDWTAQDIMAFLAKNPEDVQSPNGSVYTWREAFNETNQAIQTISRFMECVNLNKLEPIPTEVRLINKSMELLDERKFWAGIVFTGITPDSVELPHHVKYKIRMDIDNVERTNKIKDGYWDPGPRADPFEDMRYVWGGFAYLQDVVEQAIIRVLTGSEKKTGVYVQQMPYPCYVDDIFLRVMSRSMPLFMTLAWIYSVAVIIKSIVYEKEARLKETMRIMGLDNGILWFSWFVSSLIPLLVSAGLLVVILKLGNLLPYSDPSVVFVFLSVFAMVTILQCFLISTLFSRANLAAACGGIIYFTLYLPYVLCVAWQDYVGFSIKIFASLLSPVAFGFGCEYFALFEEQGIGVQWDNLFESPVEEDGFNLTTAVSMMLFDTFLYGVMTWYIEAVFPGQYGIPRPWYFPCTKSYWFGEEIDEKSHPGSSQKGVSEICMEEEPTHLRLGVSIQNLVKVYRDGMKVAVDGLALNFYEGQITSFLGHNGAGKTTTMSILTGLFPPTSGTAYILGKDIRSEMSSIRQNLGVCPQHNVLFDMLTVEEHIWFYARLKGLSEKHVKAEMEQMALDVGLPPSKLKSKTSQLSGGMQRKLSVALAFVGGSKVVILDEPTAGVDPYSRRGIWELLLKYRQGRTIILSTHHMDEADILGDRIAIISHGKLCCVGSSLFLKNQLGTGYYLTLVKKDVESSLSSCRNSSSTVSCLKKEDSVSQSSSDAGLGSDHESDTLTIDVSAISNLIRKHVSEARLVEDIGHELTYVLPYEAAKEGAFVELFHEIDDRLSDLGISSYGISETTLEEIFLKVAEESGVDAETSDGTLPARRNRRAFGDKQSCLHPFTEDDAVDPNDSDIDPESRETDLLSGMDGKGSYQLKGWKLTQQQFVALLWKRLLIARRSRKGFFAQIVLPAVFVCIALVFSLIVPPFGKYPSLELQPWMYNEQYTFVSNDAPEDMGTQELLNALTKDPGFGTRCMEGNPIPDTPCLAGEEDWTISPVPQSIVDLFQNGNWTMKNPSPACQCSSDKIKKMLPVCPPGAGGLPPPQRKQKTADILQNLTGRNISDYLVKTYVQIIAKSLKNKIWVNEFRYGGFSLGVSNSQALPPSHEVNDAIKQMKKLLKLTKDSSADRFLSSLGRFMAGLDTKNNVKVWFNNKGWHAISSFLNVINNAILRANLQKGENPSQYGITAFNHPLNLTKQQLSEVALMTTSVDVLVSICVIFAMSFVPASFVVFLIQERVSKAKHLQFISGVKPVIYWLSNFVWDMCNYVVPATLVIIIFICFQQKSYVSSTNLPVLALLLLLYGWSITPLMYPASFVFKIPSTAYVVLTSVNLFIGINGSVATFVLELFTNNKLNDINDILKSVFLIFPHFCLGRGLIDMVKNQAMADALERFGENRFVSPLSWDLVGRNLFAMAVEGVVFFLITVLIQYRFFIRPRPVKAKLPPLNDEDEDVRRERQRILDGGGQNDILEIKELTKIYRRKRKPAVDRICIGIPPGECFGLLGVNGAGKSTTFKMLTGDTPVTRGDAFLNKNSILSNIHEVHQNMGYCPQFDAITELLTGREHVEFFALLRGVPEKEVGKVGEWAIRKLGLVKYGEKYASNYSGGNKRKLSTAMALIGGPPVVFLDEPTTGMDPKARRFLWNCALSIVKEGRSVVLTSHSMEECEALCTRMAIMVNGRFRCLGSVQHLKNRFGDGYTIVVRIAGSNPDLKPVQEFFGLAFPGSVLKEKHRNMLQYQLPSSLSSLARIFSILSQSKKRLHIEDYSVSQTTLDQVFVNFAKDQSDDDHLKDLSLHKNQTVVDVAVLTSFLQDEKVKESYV
UniProt P63010: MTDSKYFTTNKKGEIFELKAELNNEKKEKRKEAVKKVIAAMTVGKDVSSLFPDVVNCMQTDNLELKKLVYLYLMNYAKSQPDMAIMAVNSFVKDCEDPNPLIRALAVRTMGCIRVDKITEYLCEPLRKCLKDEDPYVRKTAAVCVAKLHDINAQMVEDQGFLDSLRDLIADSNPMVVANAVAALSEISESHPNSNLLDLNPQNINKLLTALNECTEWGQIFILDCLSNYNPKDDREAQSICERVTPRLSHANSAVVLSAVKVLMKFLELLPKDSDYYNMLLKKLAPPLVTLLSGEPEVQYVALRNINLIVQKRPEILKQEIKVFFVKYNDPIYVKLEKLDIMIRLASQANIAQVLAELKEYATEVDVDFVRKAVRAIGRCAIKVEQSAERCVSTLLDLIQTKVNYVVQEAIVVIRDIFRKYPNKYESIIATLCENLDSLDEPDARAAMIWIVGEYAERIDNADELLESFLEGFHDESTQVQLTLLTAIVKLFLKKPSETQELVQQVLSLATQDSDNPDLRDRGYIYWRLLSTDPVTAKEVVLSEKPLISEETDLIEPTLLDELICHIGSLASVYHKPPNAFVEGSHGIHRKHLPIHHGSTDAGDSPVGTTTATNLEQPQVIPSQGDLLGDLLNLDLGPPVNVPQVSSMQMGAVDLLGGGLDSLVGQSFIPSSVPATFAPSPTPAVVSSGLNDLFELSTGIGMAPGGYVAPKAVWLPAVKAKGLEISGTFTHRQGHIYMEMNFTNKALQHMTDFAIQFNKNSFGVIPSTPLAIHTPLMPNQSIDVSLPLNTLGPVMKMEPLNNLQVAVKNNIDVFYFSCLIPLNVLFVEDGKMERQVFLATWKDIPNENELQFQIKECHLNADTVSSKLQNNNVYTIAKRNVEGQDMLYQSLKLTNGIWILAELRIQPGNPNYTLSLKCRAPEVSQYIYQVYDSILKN

Key:
[1] = target: ATP-binding cassette transporter A1 (ABCA1) tagged with GFP (UniProt O95477); test: co-IP; GFP-Trap agarose on RIPA lysates of HeLa (ABCA1-GFP) or HeLa (negative) cells, overnight at 4 °C; western blotting
[2] = target: ATP-binding cassette transporter A1 (ABCA1), endogenous in immortalized mouse astrocytes (mouse (endogenous in immortalized mouse astrocytes)) (UniProt P41233); test: co-IP; anti-ABCA1 antibody or species-matched IgG with Dynabeads Protein G on RIPA lysates of immortalized astrocytes, overnight at 4 °C; washed with 0.1% TBST; western blotting

adaptor-related protein complex 2 subunit beta 1 (from UniProt P63010 1-937)
binding [1]: binds

Caveolin-1 (from UniProt Q03135 1-178)
binding [1]: binds

B1: Caveolin-1, endogenous in immortalized mouse astrocytes (protein, UniProt P49817 1-178)
chain: MSGGKYVDSEGHLYTVPIREQGNIYKPNNKAMADEVTEKQVYDAHTKEIDLVNRDPKHLNDDVVKIDFEDVIAEPEGTHSFDGIWKASFTTFTVTKYWFYRLLSTIFGIPMALIWGIYFAILSFLHIWAVVPCIKSFLIEIQCISRVYSIYVHTFCDPLFEAIGKIFSNIRISTQKEI
binding [2]: binds
